## Screening data, single-dose tests

The chains behind the UniProt entries cited, without tags or fusion partners. Residues count along the entry.
UniProt P9WNZ1, whole entry: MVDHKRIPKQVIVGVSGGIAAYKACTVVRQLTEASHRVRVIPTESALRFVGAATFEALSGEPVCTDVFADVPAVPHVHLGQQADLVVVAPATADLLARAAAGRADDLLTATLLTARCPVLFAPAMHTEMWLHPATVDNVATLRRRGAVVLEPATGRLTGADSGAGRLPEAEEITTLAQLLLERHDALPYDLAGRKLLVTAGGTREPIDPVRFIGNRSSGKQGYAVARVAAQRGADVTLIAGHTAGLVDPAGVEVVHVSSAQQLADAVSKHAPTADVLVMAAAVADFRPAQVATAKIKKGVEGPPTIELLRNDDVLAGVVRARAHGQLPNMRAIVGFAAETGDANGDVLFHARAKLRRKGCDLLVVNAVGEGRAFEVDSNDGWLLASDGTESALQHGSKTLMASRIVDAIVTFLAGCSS
UniProt I6X8D2, whole entry: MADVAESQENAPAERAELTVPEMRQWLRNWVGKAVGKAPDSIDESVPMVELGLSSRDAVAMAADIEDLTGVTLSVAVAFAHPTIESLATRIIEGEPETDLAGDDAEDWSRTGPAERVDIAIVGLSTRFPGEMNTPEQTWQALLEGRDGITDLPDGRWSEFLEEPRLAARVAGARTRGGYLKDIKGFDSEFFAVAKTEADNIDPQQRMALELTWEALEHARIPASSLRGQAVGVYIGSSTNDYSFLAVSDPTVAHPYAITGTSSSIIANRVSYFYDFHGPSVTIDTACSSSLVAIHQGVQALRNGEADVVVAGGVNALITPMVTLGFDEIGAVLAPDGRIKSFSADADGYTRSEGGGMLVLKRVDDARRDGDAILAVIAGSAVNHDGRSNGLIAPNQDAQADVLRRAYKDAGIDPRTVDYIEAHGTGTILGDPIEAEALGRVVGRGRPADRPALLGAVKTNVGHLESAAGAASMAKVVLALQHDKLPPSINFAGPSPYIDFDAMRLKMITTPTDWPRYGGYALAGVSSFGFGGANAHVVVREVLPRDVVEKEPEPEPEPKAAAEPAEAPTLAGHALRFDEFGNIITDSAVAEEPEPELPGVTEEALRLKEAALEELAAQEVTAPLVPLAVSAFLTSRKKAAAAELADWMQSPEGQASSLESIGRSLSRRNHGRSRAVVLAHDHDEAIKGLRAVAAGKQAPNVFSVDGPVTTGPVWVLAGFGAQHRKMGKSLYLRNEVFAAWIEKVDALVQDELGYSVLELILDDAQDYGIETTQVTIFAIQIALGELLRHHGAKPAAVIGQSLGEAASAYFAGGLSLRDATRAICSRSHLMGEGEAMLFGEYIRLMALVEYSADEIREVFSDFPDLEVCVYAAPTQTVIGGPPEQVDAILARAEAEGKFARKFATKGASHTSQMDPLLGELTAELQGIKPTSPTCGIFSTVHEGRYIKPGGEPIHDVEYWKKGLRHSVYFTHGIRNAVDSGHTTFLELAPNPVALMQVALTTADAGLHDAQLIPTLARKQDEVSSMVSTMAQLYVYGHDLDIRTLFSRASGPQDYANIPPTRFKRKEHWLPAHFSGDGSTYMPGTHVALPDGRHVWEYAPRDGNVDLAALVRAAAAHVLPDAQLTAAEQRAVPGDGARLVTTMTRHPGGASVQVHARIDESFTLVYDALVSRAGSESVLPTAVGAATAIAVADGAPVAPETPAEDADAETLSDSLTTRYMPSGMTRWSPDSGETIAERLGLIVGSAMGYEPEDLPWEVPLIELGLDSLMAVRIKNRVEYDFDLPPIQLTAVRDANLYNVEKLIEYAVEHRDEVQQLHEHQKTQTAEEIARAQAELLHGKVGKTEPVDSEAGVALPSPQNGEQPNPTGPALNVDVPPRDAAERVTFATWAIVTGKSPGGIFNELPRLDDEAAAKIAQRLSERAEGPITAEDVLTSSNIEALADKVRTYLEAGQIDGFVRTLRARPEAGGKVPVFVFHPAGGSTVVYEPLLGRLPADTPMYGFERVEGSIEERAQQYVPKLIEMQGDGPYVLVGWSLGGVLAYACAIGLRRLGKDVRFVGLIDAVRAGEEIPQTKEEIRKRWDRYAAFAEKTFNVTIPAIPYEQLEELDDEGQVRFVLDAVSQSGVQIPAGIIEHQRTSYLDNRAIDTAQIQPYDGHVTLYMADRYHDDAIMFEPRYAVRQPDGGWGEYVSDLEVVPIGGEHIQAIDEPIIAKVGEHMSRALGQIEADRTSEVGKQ
UniProt P9WPC5, whole entry: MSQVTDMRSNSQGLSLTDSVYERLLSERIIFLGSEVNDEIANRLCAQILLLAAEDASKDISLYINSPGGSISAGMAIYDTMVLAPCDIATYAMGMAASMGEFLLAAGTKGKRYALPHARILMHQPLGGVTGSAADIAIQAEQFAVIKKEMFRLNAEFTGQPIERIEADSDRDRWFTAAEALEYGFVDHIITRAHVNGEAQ
UniProt P9WPC3, whole entry partner: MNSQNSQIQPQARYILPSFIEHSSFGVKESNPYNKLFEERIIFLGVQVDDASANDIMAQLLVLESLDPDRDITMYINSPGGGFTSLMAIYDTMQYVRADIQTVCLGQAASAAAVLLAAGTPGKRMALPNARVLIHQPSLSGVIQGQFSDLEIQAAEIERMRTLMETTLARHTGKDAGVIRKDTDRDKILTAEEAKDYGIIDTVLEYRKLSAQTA
UniProt A4I591, 1-473: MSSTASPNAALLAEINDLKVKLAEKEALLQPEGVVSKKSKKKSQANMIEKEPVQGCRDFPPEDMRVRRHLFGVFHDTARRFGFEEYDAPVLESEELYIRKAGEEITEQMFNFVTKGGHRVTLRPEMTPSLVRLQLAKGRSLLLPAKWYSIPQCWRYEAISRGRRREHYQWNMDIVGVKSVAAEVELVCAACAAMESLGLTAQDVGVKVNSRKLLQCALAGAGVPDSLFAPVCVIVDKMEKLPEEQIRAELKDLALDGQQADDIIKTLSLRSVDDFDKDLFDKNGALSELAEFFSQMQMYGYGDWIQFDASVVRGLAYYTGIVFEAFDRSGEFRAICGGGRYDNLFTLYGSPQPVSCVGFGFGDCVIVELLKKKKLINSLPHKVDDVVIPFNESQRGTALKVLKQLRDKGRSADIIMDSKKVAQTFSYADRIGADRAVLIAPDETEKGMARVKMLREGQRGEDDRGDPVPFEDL
UniProt P9WFT3, whole entry: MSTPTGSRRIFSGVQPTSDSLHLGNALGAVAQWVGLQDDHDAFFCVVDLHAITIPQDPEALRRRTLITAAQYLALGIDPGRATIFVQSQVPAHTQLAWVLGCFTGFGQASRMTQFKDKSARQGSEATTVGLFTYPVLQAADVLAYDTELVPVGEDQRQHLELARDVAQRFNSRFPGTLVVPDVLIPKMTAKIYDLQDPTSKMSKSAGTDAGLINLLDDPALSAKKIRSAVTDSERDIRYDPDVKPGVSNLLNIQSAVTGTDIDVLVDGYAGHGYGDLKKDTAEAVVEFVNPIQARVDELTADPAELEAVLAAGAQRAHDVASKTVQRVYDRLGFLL

CoaBC: 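Coenzyme A biosynthesis protein CoaBC, Mycobacterium tuberculosis (UniProt P9WNZ1). Enzyme assay of CoaBC with a phosphate dye (Biomol Green) read at 650 nm. Compounds at 30 µM. Higher reads as stronger inhibition, judged from the few compounds that gave an IC50. Most strong results did not repeat in a second test. About 67,000 compounds were tested under these conditions; 0.06% (about 40) showed 50% or more at least once.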
Pks13 thioesterase: 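Polyketide synthase Pks13, Mycobacterium tuberculosis (UniProt I6X8D2). Enzyme assay of the thioesterase domain of polyketide synthase 13; the read-out is not stated. Compounds at 30 µM. The record gives no direction; the compounds picked for IC50 retests had high values, so higher reads as stronger inhibition. About 67,000 compounds were tested under these conditions; 0.46% (about 300) showed 50% or more at least once.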
ClpP1P2: 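Protease assay of ClpP1P2, read by the AMC dye that it sets free. Target: ClpP1P2, Mycobacterium tuberculosis (UniProt P9WPC5 and UniProt P9WPC3). Tested at 50 µM. Higher reads as stronger inhibition, judged from the few compounds that gave an IC50. Most other retested compounds had strongly negative values. Of about 69,000 compounds tested this way, about 10 (0.015%) reached 50% or more in at least one test.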
Toxoplasma: 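Assay of Toxoplasma gondii numbers, read through their beta-galactosidase reporter with a colour substrate. Tested at 10 µM. Higher reads as fewer parasites (inferred from which compounds were picked for retests). About 67,000 compounds were tested under these conditions; 0.38% (about 260) showed 50% or more at least once.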
LiHisRS: 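Enzyme assay of histidyl-tRNA synthetase; the read-out is not stated. Target: Histidine-tRNA ligase, Leishmania infantum (UniProt A4I591). Compounds at 30 µM. Direction is inferred from retests: higher values go with stronger inhibition. The assay is labelled LdHisRS but filed under L. infantum. Of about 69,000 compounds tested this way, about 410 (0.6%) reached 50% or more in at least one test.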
MtTrpRS: 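Tryptophan-tRNA ligase, Mycobacterium tuberculosis (UniProt P9WFT3). Enzyme assay of tryptophanyl-tRNA synthetase; the read-out is not stated. Tested at 10 µM. Higher most likely means stronger inhibition; the record gives no direction and few retests gave an IC50. Size under these conditions: about 65,000 compounds, about 64 of them at 50% or above in at least one test.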

Each number is a percent effect as filed.
How 0% and 100% were set is not recorded. Most values in the screen are low, and negative values occur.
Compounds were drawn at random from those tested, without regard to their results.

{"compound": "CN(Cc1ncc(C(C)(C)C)o1)C1CCCN(c2cccnn2)C1", "stereo": "configuration not stated", "CoaBC": -0.2571, "Pks13 thioesterase": -39.3, "ClpP1P2": 16.06, "LiHisRS": -5.618, "MtTrpRS": 2.754}
{"compound": "Cn1cc(-c2nc(CN3CCOC(Cn4cccn4)C3)cs2)cn1", "stereo": "configuration not stated", "CoaBC": -5.623, "Pks13 thioesterase": 0.1376, "ClpP1P2": -4.867, "Toxoplasma": 1.731, "LiHisRS": 8.065, "MtTrpRS": 0.7048}
{"compound": "Cc1nn(C)c(Oc2cccc(F)c2)c1NC(=O)C1CCCO1", "stereo": "configuration not stated", "CoaBC": -5.433, "Pks13 thioesterase": -9.098, "ClpP1P2": -1.349, "Toxoplasma": 6.827, "LiHisRS": 17.95, "MtTrpRS": -2.514}
{"compound": "Cc1cc(C)nc(N2CCc3ccc(OC(F)F)cc3C2)n1", "CoaBC": 14.46, "Pks13 thioesterase": -36.42, "ClpP1P2": 4.836, "Toxoplasma": -1.716, "LiHisRS": 10.67, "MtTrpRS": -1.257}
{"compound": "CC(C)(C)c1nnc2n1C(C(=O)N1CCN(c3ncccn3)CC1)CC2", "stereo": "configuration not stated", "CoaBC": -3.947, "Pks13 thioesterase": -11.01, "ClpP1P2": 15.32, "Toxoplasma": 8.443, "LiHisRS": 6.897, "MtTrpRS": -1.296}
{"compound": "O=C(CCc1ccccn1)N1CCCC(n2cncn2)C1", "stereo": "configuration not stated", "CoaBC": 7.895, "Pks13 thioesterase": -13.47, "ClpP1P2": 2.47, "Toxoplasma": -56.6, "LiHisRS": 17.86, "MtTrpRS": -3.078}
{"compound": "COc1cc(N2CCC3(CCN(Cc4csc(C)n4)C3=O)C2)ncn1.O=C(O)C(F)(F)F", "stereo": "configuration not stated", "Toxoplasma": -16.6}
{"compound": "CCc1noc(C(C)Sc2nnc(C3CC3)n2CC(N)=O)n1", "stereo": "configuration not stated", "CoaBC": 4.175, "Pks13 thioesterase": -5.629, "ClpP1P2": 3.415, "Toxoplasma": -7.926, "LiHisRS": 28, "MtTrpRS": -1.34}
{"compound": "CC(C)(C)c1n[nH]cc1CNC1CCC(C(F)(F)F)CC1", "stereo": "configuration not stated", "CoaBC": 7.654, "Pks13 thioesterase": 10.65, "ClpP1P2": -2.021, "LiHisRS": 25.3, "MtTrpRS": 3.826}
{"compound": "CC(CCS(C)(=O)=O)NC(=O)NCc1ccc2ccccc2c1", "stereo": "configuration not stated", "CoaBC": -3.14, "Pks13 thioesterase": -11.02, "ClpP1P2": 0.05025, "Toxoplasma": -16.01, "LiHisRS": 1.01, "MtTrpRS": -2.909}
{"compound": "[H][C@@]12CN(CC(C)C)C[C@]1([H])OCC(=O)N2Cc1nccn1C", "Toxoplasma": -2.347}
{"compound": "Cc1nnc(N2CCCC3(CN(Cc4nccs4)CCO3)C2)o1.O=C(O)C(F)(F)F.O=C(O)C(F)(F)F", "stereo": "configuration not stated", "Toxoplasma": -8.506}
{"compound": "O=C(CSc1ccc2c(c1)OCCO2)NS(=O)(=O)c1ccccc1Cl", "CoaBC": -0.9862, "Pks13 thioesterase": -26.31, "ClpP1P2": 5.776, "Toxoplasma": 19.44, "LiHisRS": 12.12, "MtTrpRS": -7.295}
{"compound": "CCS(=O)(=O)CC(=O)Nc1cccc2c1CN(CC(C)C)C2", "CoaBC": -5.897, "Pks13 thioesterase": -8.357, "ClpP1P2": 0.7539, "Toxoplasma": -7.743, "LiHisRS": 15.05, "MtTrpRS": 3.718}
{"compound": "CN(C(=O)c1ccccc1F)[C@@H]1CC[C@@H](O)[C@@H]1O", "CoaBC": 6.651, "Pks13 thioesterase": 1.349, "ClpP1P2": -2.571, "LiHisRS": 15.49, "MtTrpRS": -0.7473}
{"compound": "Cc1cc(C)n(C2CCCN(C(=O)C3=NN(C)C(=O)CC3)C2)n1", "stereo": "configuration not stated", "CoaBC": 5.813, "Pks13 thioesterase": -4.991, "ClpP1P2": 14.02, "Toxoplasma": -3.274, "LiHisRS": 16.67, "MtTrpRS": -0.5477}
{"compound": "COc1cccc(COCC(=O)NC(C(N)=O)c2ccccc2)c1", "stereo": "configuration not stated", "CoaBC": 1.621, "ClpP1P2": -4.818, "Toxoplasma": 5.959, "LiHisRS": 3.175, "MtTrpRS": -0.3749}
{"compound": "Cc1nn(C)cc1S(=O)(=O)NCC(C)Cn1cc(Cl)cn1", "stereo": "configuration not stated", "CoaBC": 1.02, "Pks13 thioesterase": 10.27, "ClpP1P2": -9.371, "Toxoplasma": -14.1, "LiHisRS": -3.704, "MtTrpRS": -4.456}
{"compound": "[H][C@]12CCCCN1CCC[C@@]2(O)CN(CC)Cc1noc(CC(C)C)n1", "Toxoplasma": -2.179}
{"compound": "O=C(c1ccnnc1)N1C[C@H](Oc2ccccn2)[C@H]2OCCC[C@H]21", "CoaBC": 6.588, "Pks13 thioesterase": -25.95, "ClpP1P2": -6.502, "LiHisRS": 15.6, "MtTrpRS": -3.648}

From ChEMBL document CHEMBL3988442, “University of Dundee, Small-Polar-MMV Screening Library” (2021).